Source: paper PMC11150143
Results are given in words; binding and its absence hold for the method and conditions named. Binding seen in cells or lysates may run through a third protein. Some results given as binding are weak or reduced against the parent protein; the word gives no strength.

Chains of the proteins cited; added tags and fusions are not shown.
UniProt P26651: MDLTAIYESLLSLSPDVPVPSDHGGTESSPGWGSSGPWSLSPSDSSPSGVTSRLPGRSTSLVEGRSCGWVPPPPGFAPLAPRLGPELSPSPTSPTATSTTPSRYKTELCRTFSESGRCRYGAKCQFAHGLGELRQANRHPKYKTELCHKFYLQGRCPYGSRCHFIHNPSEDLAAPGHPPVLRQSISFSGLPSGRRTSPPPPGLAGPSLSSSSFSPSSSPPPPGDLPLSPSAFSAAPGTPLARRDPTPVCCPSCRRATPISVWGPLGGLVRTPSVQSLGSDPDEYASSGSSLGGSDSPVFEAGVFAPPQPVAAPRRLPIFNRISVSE
UniProt P49137: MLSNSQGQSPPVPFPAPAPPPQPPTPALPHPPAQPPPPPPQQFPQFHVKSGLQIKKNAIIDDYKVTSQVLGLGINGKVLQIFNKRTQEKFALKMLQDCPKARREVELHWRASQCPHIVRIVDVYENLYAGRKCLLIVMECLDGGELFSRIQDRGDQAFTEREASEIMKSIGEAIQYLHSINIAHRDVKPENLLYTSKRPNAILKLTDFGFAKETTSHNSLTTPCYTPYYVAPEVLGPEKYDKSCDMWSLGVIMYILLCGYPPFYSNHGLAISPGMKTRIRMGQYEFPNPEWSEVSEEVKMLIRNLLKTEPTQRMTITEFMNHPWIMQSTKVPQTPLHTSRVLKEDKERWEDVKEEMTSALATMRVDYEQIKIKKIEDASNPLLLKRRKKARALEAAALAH

Molecular target: ZFP36 (human (endogenous in HIOECs)) (UniProt P26651)
Experiment: co-IP; RNA-binding protein immunoprecipitation (RIP, Magna RIP kit) with a ZFP36 antibody from cells 48 h after transfection with CCAT1 inhibition or overexpression plasmids; precipitates analysed by PCR and Western blotting; more MK2 in the precipitate with CCAT1 overexpression

binding: binds
Substance: MAPK-activated protein kinase 2 (from UniProt P49137 1-400) (enzyme)
